In PubChem BioAssay AID2685 (National Center for Advancing Translational Sciences (NCATS), 2010):
The list shows a part of the results. Further columns of the screen follow, without active or inactive calls. Compounds called inactive in the main read-out are mostly missing here. Words in brackets tell the shape of the fitted curve; partial curves, single points and poor fits give uncertain potencies.

Test: qHTS Assay for Lipid Storage Modulators in Drosophila S3 Cells;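 as to cell number change: cells counted by Cell Tracker Red CMTPX staining in the red channel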
Conditions: BODIPY lipid droplet fluorescence, 18-24 h; for cell number change: measured here: cell count max response, cells fed with added oleic acid
Method in brief: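 Laser-scanning cytometry quantifies lipid droplet accumulation (500–530 nm total intensity; droplet/cell object ratio) in oleic acid-fed (400 uM added) Drosophila S3 cells treated with a concentration series. 20 uM Triacsin C defined 100% inhibition.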

[1] = measured here: cell number channel AC50, cells fed with added oleic acid
[2] = measured here: lipid fluorescence (Fed channel) AC50, cells fed with added oleic acid

Structure (SMILES)	AC50 [1]	AC50 [2]	cell number change
CCOC(=O)c1ccc(-n2c(C)nc3c(cnn3-c3ccc(Cl)cc3)c2=O)cc1	1.64 µM [rising, partial curve, poor fit]	3.26 µM [rising, partial curve]	
Clc1ccc(-c2cc3ccccc3nc2N2CCCC2)cc1	2.91 µM [rising, partial curve]		
S=C1SCN(Cc2ccccc2)CN1Cc1ccccc1	0.517 µM [rising, full curve]	0.58 µM [falling, single point]	11.1%
N#Cc1nc(-c2ccc(OCc3ccccc3)cc2)oc1N1CCC(C(N)=O)CC1	1.64 µM [falling, partial curve]		5.04%
CNC(=O)C(=O)NCCCN1CCOCC1		6.51 µM [rising, single point]	27.7%
Cc1nc([N+](=O)[O-])c(N2CCN(C)CC2)n1Cc1ccccc1			2.26%
CC(=O)c1cn(C)c(=O)n(C)c1=O	0.731 µM [rising, partial curve, poor fit]		-35.8%
COCCN(C(=O)c1csnn1)C(C(=O)NC1CCCC1)c1ccccc1 (stereo not given)	3.66 µM [rising, single point]		19.2%
O=C(Nc1cccc(Cl)c1)O/N=C\c1ccncc1			-11.8%
Cc1cc(C)n2nc(C(=O)OCC(=O)N3CC(C)CC(C)C3)nc2n1 (stereo not given)		25.9 µM [rising, partial curve, poor fit]	-3.3%
CCOc1ccc(N2C(=O)CC(N3CCOCC3)C2=O)cc1 (stereo not given)		0.082 µM [rising, full curve, poor fit]	8.19%
Cc1c(C(=O)O)sc(=S)n1-c1ccccc1		29.1 µM [falling, single point]	-1.1%
Fc1ccc(CNc2nc(-c3cccnc3)nc3ccccc23)cc1		29.1 µM [falling, single point]	-3.97%
O=C(NCCc1ccccc1)C1CCCN(C(=O)NC2CCCCC2)C1 (stereo not given)		0.13 µM [rising, full curve, poor fit]	4.89%
O=C(Nc1nc2ccc(F)cc2s1)Oc1ccccc1		29.1 µM [rising, single point]	8.4%
COc1ccc(CCNC(=O)c2ccc(NC(=O)CC3SC(N4CCCC4)=NC3=O)cc2)cc1 (stereo not given)			-11.3%
COc1ccc(Br)cc1CNC(=O)CCN1C(=O)COc2ccccc21		6.51 µM [rising, single point]	4.65%
Cc1nnc(NC(=O)c2ccc3c(c2)OCO3)s1		8.2 µM [rising, partial curve, poor fit]	25.4%
CCOc1ccc(OCCSc2nc3ccccc3n2CC(=O)O)cc1		29.1 µM [rising, single point]	4.2%
CCOC(=O)C1=C(C)N=C2SCCC(=O)N2C1c1ccc(C(=O)OC)cc1 (stereo not given)			-14.1%
O=C(NC(NC(=S)Nc1c(Cl)cc(Cl)cc1Cl)C(Cl)(Cl)Cl)OCc1ccccc1 (stereo not given)		29.1 µM [falling, single point]	-20.1%

Ordered by formula weight (ascending): three of the compounds above
Structure (SMILES)	AC50 [1]	AC50 [2]	cell number change
CCOc1ccc(N2C(=O)CC(N3CCOCC3)C2=O)cc1 (stereo not given)		0.082 µM [rising, full curve, poor fit]	8.19%
S=C1SCN(Cc2ccccc2)CN1Cc1ccccc1	0.517 µM [rising, full curve]	0.58 µM [falling, single point]	11.1%
CCOC(=O)c1ccc(-n2c(C)nc3c(cnn3-c3ccc(Cl)cc3)c2=O)cc1	1.64 µM [rising, partial curve, poor fit]	3.26 µM [rising, partial curve]	

More entries

Structure (SMILES)	AC50 [1]	AC50 [2]	cell number change
N#Cc1nc(-c2cccc3ccccc23)oc1NCCN1CCOCC1			-13.1%
CCOc1cc(C(=S)N2CCCC2)ccc1OCc1ccccc1	29.1 µM [falling, single point]		-39.9%
O=c1[nH]c2cc(NCCO)c([N+](=O)[O-])cc2[nH]1	16.4 µM [rising, single point]	6.51 µM [falling, single point]	49.5%
Oc1ccccc1C1=Nc2nc3ccccc3n2C(c2ccccc2)C1 (stereo not given)	18.4 µM [falling, single point]	29.1 µM [rising, single point]	-93%
CCOc1ccccc1N1CCN(C(=O)c2cccs2)CC1		6.51 µM [rising, single point]	15.2%
CCc1c(C)nc2ncnn2c1Nc1ccc(C)cc1		29.1 µM [falling, single point]	-9.62%
Cn1c(SCc2c(Cl)cccc2Cl)nnc1-c1cccs1			-0.0261%
Cc1ccc(-c2nc(SCC(=O)N(C)C3CCS(=O)(=O)C3)[nH]c2-c2ccc(C)cc2)cc1 (stereo not given)	2.31 µM [falling, full curve]	5.8 µM [falling, partial curve]	-85.4%
COc1cccc(NC(=O)NCc2ccccc2F)c1		0.092 µM [falling, full curve, poor fit]	-6.33%
Cc1cccc(C)c1OCCNC(=O)OCc1ccccc1	25.9 µM [falling, single point]	6.51 µM [rising, single point]	-121%
COc1ccc2c(c1)c(C(=O)O)c(C)n2-c1ccc(Cl)cc1		7.31 µM [rising, partial curve]	3.31%
Cc1cc(C)cc(NC(=O)CSc2nnc(-c3ccccc3)n2N)c1	3.26 µM [rising, partial curve, poor fit]		23.8%
Cc1occc1-c1nnc(SCC(=O)N2CCCc3ccccc32)n1Cc1ccco1		1.84 µM [rising, partial curve]	10.9%
COc1cc(OC)c(N(C)C(=O)CCNC(=O)Cn2cnc3ccccc3c2=O)cc1Cl	14.6 µM [rising, partial curve]		84.7%
O=C(N1CCCCCC1)n1c(Cc2ccccc2)nc2ccccc21		29.1 µM [falling, single point]	-26.7%
O=C(Nc1ccc2c(c1)OCO2)c1cc2ncc(Br)cn2n1		5.8 µM [rising, partial curve]	9.87%
CCOC(=O)C1=C(COC(=O)Cc2ccc(OC)c(OC)c2)NC(=O)NC1C (stereo not given)			14.3%
CN(C)CCNC(=O)Cn1c(=O)c2cccn2c2ccc(F)cc21		6.51 µM [rising, single point]	12.1%
Cn1c(SCC(=O)N2CCCc3ccccc32)nnc1-c1ccccc1		5.17 µM [rising, single point]	-16.5%
O=C(NC(=S)Nc1ccc2[nH]ncc2c1)c1ccccc1	0.411 µM [rising, full curve]	3.66 µM [rising, full curve]	32.7%
